The results in this text go back to article PMC11094195.

Sequences of proteins named here, by UniProt entry; tags and fusion partners are left off.
UniProt O75928: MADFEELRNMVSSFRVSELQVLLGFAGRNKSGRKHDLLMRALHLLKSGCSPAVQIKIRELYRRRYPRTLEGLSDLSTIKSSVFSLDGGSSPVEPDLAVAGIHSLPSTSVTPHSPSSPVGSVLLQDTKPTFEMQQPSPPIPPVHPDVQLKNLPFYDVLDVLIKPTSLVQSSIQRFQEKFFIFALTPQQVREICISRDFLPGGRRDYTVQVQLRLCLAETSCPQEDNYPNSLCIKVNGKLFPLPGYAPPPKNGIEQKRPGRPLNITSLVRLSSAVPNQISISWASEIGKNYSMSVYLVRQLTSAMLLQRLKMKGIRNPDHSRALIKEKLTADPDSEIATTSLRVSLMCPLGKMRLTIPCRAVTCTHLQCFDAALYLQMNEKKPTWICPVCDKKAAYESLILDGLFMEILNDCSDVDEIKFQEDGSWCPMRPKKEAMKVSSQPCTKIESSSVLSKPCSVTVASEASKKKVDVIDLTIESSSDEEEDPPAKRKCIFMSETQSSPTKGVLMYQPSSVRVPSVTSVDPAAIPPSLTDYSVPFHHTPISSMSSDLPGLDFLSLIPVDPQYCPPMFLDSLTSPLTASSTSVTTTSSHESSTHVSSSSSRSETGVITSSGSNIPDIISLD
UniProt Q14204: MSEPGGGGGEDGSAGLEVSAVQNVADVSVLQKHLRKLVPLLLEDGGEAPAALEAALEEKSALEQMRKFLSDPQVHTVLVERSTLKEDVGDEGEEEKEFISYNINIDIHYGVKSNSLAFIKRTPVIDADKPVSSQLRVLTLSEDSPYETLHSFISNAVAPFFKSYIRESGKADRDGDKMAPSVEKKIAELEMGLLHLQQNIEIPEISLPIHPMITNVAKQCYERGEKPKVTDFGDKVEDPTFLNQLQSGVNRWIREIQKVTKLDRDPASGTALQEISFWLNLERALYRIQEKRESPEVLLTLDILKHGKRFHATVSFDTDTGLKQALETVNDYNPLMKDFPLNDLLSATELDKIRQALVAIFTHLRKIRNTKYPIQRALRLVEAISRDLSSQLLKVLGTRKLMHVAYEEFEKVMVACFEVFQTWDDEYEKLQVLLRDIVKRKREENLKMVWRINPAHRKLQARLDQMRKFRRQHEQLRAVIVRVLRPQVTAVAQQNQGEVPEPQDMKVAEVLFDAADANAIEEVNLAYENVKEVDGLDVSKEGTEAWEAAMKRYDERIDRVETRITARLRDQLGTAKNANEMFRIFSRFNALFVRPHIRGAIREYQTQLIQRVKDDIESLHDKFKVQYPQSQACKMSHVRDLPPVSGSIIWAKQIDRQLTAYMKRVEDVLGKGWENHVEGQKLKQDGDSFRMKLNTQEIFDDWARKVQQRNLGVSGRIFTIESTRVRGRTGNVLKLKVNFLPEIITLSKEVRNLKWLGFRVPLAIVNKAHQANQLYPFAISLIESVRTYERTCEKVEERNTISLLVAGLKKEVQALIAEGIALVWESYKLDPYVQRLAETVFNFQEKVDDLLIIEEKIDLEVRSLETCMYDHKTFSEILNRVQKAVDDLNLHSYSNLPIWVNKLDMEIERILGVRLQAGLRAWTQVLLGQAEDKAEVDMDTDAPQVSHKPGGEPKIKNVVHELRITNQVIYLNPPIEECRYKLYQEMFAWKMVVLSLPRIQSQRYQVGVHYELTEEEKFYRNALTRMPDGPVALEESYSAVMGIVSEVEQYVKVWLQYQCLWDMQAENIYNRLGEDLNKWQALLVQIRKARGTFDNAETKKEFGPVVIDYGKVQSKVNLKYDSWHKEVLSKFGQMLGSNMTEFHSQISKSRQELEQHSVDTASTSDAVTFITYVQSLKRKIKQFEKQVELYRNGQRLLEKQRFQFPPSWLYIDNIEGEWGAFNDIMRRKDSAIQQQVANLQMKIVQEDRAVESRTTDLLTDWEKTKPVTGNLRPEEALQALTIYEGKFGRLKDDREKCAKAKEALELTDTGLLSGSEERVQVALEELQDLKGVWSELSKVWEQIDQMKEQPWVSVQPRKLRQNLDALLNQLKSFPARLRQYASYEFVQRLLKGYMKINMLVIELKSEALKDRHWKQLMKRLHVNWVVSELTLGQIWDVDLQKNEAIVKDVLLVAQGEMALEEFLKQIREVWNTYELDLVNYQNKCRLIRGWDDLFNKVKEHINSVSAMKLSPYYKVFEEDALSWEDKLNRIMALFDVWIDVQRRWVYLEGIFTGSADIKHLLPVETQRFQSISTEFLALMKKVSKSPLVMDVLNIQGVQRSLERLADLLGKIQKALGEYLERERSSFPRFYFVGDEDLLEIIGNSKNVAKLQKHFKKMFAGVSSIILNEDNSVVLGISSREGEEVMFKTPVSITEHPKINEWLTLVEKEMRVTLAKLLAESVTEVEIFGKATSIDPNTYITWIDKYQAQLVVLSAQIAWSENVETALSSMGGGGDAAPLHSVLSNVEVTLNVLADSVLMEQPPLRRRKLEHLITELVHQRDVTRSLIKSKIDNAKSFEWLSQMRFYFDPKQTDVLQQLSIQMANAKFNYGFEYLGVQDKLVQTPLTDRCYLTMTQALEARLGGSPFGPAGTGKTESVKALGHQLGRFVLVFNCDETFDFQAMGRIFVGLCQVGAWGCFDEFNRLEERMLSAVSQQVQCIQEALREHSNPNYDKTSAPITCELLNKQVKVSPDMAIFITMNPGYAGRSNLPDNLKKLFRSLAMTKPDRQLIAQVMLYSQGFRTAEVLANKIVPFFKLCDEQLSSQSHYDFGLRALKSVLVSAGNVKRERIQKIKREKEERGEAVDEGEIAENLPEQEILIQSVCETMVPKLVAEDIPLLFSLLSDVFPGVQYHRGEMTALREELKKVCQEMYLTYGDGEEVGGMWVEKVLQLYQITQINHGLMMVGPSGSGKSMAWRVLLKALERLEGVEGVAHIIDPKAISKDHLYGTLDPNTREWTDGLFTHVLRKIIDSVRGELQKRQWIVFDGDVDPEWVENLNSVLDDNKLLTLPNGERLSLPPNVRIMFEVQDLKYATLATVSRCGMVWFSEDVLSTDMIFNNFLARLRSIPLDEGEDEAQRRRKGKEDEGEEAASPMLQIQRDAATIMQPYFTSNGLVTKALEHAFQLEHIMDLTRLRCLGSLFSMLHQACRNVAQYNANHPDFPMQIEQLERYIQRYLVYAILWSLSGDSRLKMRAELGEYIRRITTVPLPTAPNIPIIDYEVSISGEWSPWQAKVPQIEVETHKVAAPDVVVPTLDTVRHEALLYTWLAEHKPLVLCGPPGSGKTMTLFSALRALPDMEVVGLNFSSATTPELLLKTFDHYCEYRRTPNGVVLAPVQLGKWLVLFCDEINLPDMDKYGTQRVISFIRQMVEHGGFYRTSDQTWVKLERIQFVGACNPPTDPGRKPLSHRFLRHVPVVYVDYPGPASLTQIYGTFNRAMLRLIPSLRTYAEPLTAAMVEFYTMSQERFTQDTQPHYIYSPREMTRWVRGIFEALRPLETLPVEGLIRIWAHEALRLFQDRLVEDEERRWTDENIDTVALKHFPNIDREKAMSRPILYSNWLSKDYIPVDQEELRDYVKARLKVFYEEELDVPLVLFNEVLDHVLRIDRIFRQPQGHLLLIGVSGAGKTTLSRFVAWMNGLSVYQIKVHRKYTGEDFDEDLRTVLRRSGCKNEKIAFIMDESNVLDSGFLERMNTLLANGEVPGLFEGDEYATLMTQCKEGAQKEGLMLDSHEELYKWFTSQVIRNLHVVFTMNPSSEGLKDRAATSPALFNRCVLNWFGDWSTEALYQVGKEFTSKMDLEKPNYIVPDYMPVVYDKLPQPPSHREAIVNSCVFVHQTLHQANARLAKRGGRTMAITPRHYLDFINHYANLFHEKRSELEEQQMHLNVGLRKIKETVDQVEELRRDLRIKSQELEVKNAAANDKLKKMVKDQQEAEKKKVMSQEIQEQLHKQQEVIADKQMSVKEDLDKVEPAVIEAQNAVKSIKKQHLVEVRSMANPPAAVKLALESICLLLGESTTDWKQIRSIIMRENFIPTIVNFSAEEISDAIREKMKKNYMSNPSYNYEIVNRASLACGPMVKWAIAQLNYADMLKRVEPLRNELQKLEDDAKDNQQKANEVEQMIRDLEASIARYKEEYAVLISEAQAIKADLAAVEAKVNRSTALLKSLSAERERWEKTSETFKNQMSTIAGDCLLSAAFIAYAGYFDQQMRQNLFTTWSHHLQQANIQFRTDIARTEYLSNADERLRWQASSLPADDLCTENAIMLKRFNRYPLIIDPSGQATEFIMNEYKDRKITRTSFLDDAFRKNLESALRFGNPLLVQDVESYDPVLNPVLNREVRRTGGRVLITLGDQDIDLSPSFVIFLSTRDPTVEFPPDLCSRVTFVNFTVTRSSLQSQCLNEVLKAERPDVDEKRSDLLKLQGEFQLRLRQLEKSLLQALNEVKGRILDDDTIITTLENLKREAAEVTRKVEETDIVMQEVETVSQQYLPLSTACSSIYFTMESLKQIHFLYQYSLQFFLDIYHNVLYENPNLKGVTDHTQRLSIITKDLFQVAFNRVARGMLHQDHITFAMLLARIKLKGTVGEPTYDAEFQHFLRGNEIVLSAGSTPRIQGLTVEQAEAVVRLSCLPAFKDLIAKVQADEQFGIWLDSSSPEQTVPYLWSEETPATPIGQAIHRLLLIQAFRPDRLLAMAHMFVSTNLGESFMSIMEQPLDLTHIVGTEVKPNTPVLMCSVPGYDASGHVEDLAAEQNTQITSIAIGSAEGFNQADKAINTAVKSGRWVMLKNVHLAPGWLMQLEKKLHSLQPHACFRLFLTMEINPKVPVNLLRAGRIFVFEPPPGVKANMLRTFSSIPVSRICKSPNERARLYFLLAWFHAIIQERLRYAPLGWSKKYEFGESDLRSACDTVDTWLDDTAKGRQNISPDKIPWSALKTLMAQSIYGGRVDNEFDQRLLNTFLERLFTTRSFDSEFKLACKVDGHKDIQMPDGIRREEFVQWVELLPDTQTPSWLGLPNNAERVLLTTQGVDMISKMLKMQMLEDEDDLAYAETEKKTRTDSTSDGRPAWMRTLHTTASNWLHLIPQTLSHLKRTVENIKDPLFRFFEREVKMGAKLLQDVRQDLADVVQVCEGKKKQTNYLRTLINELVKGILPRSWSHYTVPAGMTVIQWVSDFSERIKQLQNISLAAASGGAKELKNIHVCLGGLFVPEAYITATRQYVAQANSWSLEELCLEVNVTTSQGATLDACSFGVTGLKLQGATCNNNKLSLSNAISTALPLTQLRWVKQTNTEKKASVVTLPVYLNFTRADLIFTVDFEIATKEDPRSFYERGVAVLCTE
UniProt P67775: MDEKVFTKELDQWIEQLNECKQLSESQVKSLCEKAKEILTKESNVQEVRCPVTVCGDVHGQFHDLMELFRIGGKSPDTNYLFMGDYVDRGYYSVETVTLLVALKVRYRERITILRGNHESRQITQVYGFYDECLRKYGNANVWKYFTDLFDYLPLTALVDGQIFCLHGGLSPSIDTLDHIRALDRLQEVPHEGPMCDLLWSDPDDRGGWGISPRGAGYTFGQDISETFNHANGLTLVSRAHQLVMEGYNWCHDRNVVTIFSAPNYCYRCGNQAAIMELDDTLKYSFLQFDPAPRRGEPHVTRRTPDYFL
UniProt P53350: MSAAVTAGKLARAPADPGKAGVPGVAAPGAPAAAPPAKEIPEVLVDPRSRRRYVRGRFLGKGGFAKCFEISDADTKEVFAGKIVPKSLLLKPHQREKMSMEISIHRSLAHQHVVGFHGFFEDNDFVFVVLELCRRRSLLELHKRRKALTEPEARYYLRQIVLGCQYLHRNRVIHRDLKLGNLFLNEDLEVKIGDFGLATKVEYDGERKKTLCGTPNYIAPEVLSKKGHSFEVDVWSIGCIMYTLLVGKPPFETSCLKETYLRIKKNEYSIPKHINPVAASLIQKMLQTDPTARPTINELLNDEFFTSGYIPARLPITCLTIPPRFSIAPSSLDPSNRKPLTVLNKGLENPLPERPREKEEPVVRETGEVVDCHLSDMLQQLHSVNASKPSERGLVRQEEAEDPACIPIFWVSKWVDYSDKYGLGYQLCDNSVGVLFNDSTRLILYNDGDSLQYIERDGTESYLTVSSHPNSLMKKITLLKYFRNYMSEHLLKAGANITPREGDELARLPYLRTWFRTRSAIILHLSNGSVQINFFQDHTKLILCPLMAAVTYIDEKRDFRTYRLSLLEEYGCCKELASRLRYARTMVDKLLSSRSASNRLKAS
UniProt O14965: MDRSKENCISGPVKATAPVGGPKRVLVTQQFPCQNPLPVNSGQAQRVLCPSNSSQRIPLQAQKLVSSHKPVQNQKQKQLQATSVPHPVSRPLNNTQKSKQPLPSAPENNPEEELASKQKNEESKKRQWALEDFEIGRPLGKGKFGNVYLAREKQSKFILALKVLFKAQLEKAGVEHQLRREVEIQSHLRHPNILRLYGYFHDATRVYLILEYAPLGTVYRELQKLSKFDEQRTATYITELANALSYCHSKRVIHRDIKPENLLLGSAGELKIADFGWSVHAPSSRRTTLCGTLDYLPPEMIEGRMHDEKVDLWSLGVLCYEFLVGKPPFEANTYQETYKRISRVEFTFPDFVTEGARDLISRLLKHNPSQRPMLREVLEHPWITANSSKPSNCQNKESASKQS

Assay [1] concerns the target PIAS2 beta isoform (PIAS2b), endogenous (human (endogenous in 8305C)) (UniProt O75928). Nature of the assay: affinity purification with mass spectrometry; Proteomic Assay 1: immunoprecipitation with mPIAS2 (clone D-12) against mouse IgG2a isotype from 8305C extracts synchronized at mitosis (DT/R-6 h), glycerol lysis buffer, protein G-Sepharose, overnight 4 °C, 5 washes with HNTG buffer, LC-MS/MS (SWATH and spectrum count).

A further assay has as its target EGFP-hPIAS2b (human) (UniProt O75928). In words: affinity purification with mass spectrometry; Proteomic Assay 2: GFP-Trap of 8305C extracts (DT-6h) transfected with a non-toxic amount of EGFP-hPIAS2b against EGFP, SUMO-lysis buffer with N-ethylmaleimide, overnight 4 °C, LC-MS/MS (spectrum count).
In assay [2] the target is PIAS2 beta isoform (PIAS2b), endogenous (human (endogenous in 8305C)) (UniProt O75928). In words: affinity purification with mass spectrometry; Proteomic Assay 1: immunoprecipitation with mPIAS2 (clone D-12) against mouse IgG2a isotype from 8305C extracts synchronized at mitosis (DT/R-6 h), glycerol lysis buffer, protein G-Sepharose, overnight 4 °C, 5 washes with HNTG buffer, LC-MS/MS (SWATH and spectrum count). This is another data set of the same source.

Read-outs that look alike come from different tables or passages of the source. Results are given in words; binding and its absence hold for the method and conditions named. In cells and extracts the contact can be indirect. A yes stands for co-enrichment or nearness to the bait. Other partners may have been found.

For the molecule “DYNC1H1, endogenous (from UniProt Q14204 1-4646)”, the binding entry (in assay [1]; with EGFP-hPIAS2b (human)) was “binds” throughout. For “PLEC, endogenous (from UniProt Q15149 1-4684)”, the binding entry (in assay [1]; with EGFP-hPIAS2b (human)) was “binds” throughout. As for “MACF1, endogenous (from UniProt Q9UPN3 1-7388)”, the binding entry (in assay [1]; with EGFP-hPIAS2b (human)) was “binds” each time. Turning to “gamma tubulin, endogenous (from UniProt P23258)”, in assay [1], the binding result is “binds”. The same measure, in the same setting: in the case of “CCNB1, endogenous (from UniProt P14635 1-433)” it was “binds”; in that of “RANBP2, endogenous (from UniProt P49792 1-3224)”, “binds”.

For “PSMB2, endogenous (from UniProt P49721 1-201)”, the binding result (in assay [1]; in the assay with EGFP-hPIAS2b (human)) was “binds” in each case. For the molecule “TUBB3, endogenous (from UniProt Q13509 1-450)”, the binding result (in assay [1]; with EGFP-hPIAS2b (human)) was “binds” throughout. As for “TUBGPC2 (as printed), endogenous (from UniProt Q9BSJ2 1-902)”, the binding result in assay [1] was “binds”. On to “SPTAN1, endogenous (from UniProt Q13813 1-2472)”, for which the binding entry (in assay [1]; with EGFP-hPIAS2b (human)) was “binds” throughout.

With “NUMA1, endogenous (from UniProt Q14980 1-2115)”, the binding entry in assay [1] was “binds”.

“PSMC6, endogenous (from UniProt P62333 1-389)”: the binding entry (in assay [1]; with EGFP-hPIAS2b (human)) was “binds” throughout.

As to “NEK7, endogenous (from UniProt Q8TDX7 1-302)”, the binding result in assay [1] is recorded as “binds”. On the same count and under the same terms, in the case of “catalytic subunit of the serine/threonine-protein phosphatase 2A alpha isoform (PPP2CA), endogenous (from UniProt P67775 1-309)” it was “binds”. On the same count and under the same terms, the value for “PLK1, endogenous (from UniProt P53350 1-603)” was “binds”. Turning to “PSMD12, endogenous (from UniProt O00232 1-456)”, the binding entry (in assay [1]; in the assay with EGFP-hPIAS2b (human)) was “binds” each time. As for “aurora kinase A (AURKA), endogenous (from UniProt O14965 1-403)”, the binding entry in assay [1] was “binds”.

With “PSMC5, endogenous (from UniProt P62195 1-406)”, the binding result (in assay [1]; with EGFP-hPIAS2b (human)) was “binds” in each case. As to “TNPO1, endogenous (from UniProt Q92973 1-898)”, the binding entry (in assay [1]; with EGFP-hPIAS2b (human)) was “binds” throughout.

B1: AAAS, endogenous (protein, UniProt Q9NRG9 1-546)
chain: MCSLGLFPPPPPRGQVTLYEHNNELVTGSSYESPPPDFRGQWINLPVLQLTKDPLKTPGRLDHGTRTAFIHHREQVWKRCINIWRDVGLFGVLNEIANSEEEVFEWVKTASGWALALCRWASSLHGSLFPHLSLRSEDLIAEFAQVTNWSSCCLRVFAWHPHTNKFAVALLDDSVRVYNASSTIVPSLKHRLQRNVASLAWKPLSASVLAVACQSCILIWTLDPTSLSTRPSSGCAQVLSHPGHTPVTSLAWAPSGGRLLSASPVDAAIRVWDVSTETCVPLPWFRGGGVTNLLWSPDGSKILATTPSAVFRVWEAQMWTCERWPTLSGRCQTGCWSPDGSRLLFTVLGEPLIYSLSFPERCGEGKGCVGGAKSATIVADLSETTIQTPDGEERLGGEAHSMVWDPSGERLAVLMKGKPRVQDGKPVILLFRTRNSPVFELLPCGIIQGEPGAQPQLITFHPSFNKGALLSVGWSTGRIAHIPLYFVNAQFPRFSPVLGRAQEPPAGGGGSIHDLPLFTETSPTSAPWDPLPGPPPVLPHSPHSHL
B1: in assay [2], the binding result is on record as “binds”.

B2: PLS3, endogenous (protein, UniProt P13797 1-630)
chain: MDEMATTQISKDELDELKEAFAKVDLNSNGFICDYELHELFKEANMPLPGYKVREIIQKLMLDGDRNKDGKISFDEFVYIFQEVKSSDIAKTFRKAINRKEGICALGGTSELSSEGTQHSYSEEEKYAFVNWINKALENDPDCRHVIPMNPNTDDLFKAVGDGIVLCKMINLSVPDTIDERAINKKKLTPFIIQENLNLALNSASAIGCHVVNIGAEDLRAGKPHLVLGLLWQIIKIGLFADIELSRNEALAALLRDGETLEELMKLSPEELLLRWANFHLENSGWQKINNFSADIKDSKAYFHLLNQIAPKGQKEGEPRIDINMSGFNETDDLKRAESMLQQADKLGCRQFVTPADVVSGNPKLNLAFVANLFNKYPALTKPENQDIDWTLLEGETREERTFRNWMNSLGVNPHVNHLYADLQDALVILQLYERIKVPVDWSKVNKPPYPKLGANMKKLENCNYAVELGKHPAKFSLVGIGGQDLNDGNQTLTLALVWQLMRRYTLNVLEDLGDGQKANDDIIVNWVNRTLSEAGKSTSIQSFKDKTISSSLAVVDLIDAIQPGCINYDLVKSGNLTEDDKHNNAKYAVSMARRIGARVYALPEDLVEVKPKMVMTVFACLMGRGMKRV
As to B2, the binding entry (with EGFP-hPIAS2b (human); in assay [2]) was “binds” in each case.
